Values joined by “and” are separate entries in the source; they are usually repeats but may differ in a detail not shown here. Equal values may be shown once. Further values from the same series stand in other lists.
Key:
hCB1 = hCB1 (Homo sapiens, UniProt P21554); assay: Tango β-arrestin-2 recruitment, HTLA cells, CB1R; format: cell-based; set-up: expressed in transfected cells; host or cells: HTLA cells (gift of R. Axel), transient transfection
hCB2 = hCB2 (Homo sapiens, UniProt P34972); assay: TRUPATH BRET2 GoA dissociation, HEK293T; format: cell-based; set-up: expressed in transfected cells; host or cells: HEK293T cells (ATCC: CRL-3216), transient co-transfection; conditions: replicate columns

Sequences of proteins named here, by UniProt entry; tags and fusion partners are left off.
UniProt P21554, whole entry: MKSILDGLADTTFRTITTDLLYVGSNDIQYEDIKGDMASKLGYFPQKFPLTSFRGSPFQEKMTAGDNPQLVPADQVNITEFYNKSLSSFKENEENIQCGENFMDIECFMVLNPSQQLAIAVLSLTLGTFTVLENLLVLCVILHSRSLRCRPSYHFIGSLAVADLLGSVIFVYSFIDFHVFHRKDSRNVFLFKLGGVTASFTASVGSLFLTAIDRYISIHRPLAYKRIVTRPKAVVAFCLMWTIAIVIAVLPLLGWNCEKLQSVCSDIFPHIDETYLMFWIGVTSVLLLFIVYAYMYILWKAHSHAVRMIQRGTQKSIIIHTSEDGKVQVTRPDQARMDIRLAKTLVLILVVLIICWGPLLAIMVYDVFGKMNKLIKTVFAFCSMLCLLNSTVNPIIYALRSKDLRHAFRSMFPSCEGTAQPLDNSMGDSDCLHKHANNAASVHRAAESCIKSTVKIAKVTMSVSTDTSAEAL
UniProt P34972, whole entry: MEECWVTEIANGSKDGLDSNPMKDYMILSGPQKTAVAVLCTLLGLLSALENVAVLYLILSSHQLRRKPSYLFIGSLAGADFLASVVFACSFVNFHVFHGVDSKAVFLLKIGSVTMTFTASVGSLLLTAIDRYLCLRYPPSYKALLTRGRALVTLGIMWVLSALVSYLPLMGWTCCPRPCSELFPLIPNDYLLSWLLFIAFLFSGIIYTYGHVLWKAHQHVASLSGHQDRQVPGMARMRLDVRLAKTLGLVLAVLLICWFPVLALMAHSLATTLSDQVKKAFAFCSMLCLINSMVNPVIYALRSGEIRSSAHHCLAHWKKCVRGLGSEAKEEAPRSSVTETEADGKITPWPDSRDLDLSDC

Row | Compound | response, replicate values of concentration-response curve (FigS7f) (hCB1; Log[drug] in M = -8) | response, replicate values of concentration-response curve (FigS7f) (hCB1; Log[drug] in M = -8.52) | response, replicate values of concentration-response curve (FigS7f) (hCB1; Log[drug] in M = -9) | response, replicate values of concentration-response curve (FigS7f) (hCB1; Log[drug] in M = -9.52) | functional response, concentration-response point (FigS7e, normalized) (hCB2; Log[drug] in M = -9) | functional response, concentration-response point (FigS7e, normalized) (hCB2; Log[drug] in M = -9.52) | functional response, concentration-response point (FigS7e, normalized) (hCB2; Log[drug] in M = -10) | functional response, concentration-response point (FigS7e, normalized) (hCB2; Log[drug] in M = -10.52) | functional response, concentration-response point (FigS7e, normalized) (hCB2; Log[drug] in M = -11) | functional response, concentration-response point (FigS7e, normalized) (hCB2; Log[drug] in M = -11.52) | functional response, concentration-response point (FigS7e, normalized) (hCB2; Log[drug] in M = -12) | functional response, concentration-response point (FigS7e, normalized) (hCB2; Log[drug] in M = -4.52)
1 | COC(=O)[C@@H]1[C@@H]2CCC[C@@H]2CN1C(=O)c1cc(C)n(-c2cccc(Cl)c2)n1 (racemic) [‘10010] | -50.0737 and -6.482 and 0.6288 and 1.583 and -35.9577 and -25.6736 and 3.588 and -5.354 and 5.296 and 10.0411 and -22.9484 and -9.607 | 33.1038 and 12.658 and 7.2455 and -21.6661 and -19.2377 and -1.788 and -12.1741 and 1.638 and 7.286 and 21.1773 and -10.7368 and -8.276 | -10.6778 and 12.0242 and 13.8115 and 7.05 and -13.3858 and -8.609 and 13.3383 and -7.627 and -23.0257 and 34.5007 and 1.056 and 13.6681 | -2.796 and 29.5951 and 8.317 and -8.769 and -1.8277 and 19.136 and -37.1648 and -36.8003 | 0.5634 and -0.3529 and 0.2365 and 0.6575 and 0.2282 and 0.6319 and 0.3753 and 1.111 and -0.09291 and 0.0625 and 0.08615 and 0.2483 | -0.04582 and -0.001238 and 0.7962 and 0.2662 and 0.5715 and -0.1754 and 0.2886 and 0.6658 and -0.07601 and -0.06926 and 0.04899 and 0.05574 | -0.2984 and -0.05077 and -0.1746 and 0.1771 and 0.2659 and 0.001886 and 0.1792 and 0.9714 and -0.2145 and -0.1368 and -0.005068 and -0.08615 | -0.1053 and -0.13 and -0.3777 and -0.1449 and 0.2094 and 0.281 and -0.149 and -0.2433 and -0.04223 (2×) and 0.6064 and 0.0152 | 0.06315 and 0.9894 and 0.4396 and -0.03591 and 0.3678 and -0.1188 and -0.001886 and 0.2697 and -0.1706 and 0.008446 and -0.1976 and -0.2652 | 0.3901 and -0.06068 and 1.668 and 0.6773 and 1.111 and 0.09997 and -0.04715 and 0.1037 and -0.3666 and 0.09966 and -0.1267 and -0.0625 | 0.2245 and -0.2131 and -0.1528 and 0.1415 and 0.201 and -0.3226 and -0.03547 and 0.1571 | 
2 | Cc1cc(C(=O)N2CC3(CCC3)C2C2CCCO2)nn1-c1cccc(C(F)(F)F)c1 (stereo not drawn) [‘3737] | 20.4123 and 28.3093 and -3.1263 and -13.6436 and 12.9092 and 43.9738 and -17.7328 and -7.871 and -2.85 and 12.9287 and 26.9082 | 3.731 and -5.75 and -45.2348 and -21.8046 and -32.7787 and -4.62 and -20.9964 and 0.2016 and -12.8324 and -16.7254 and -40.4377 | 31.9092 and 23.1249 and -0.1881 and 29.7088 and 13.1348 and 18.2371 and -3.466 and 3.738 and -37.9225 and 71.0157 |  | 0.0674 and -0.4574 and -0.1541 and -0.2937 and -0.01634 and 1.0402 and 0.005446 and -0.1507 and 1.555 and 0.4069 (2×) and 0.2093 | 0.2167 and -0.3129 and -0.04815 and -0.4044 and 0.4847 and 0.05991 and 0.1725 and -0.06354 and 0.4351 and 0.3316 and 0.1058 and 0.1717 | -0.04333 and -0.4526 and 0.5874 and -0.3659 and 1.204 and 0.1035 and 0.5137 and 0.2233 and 0.2328 and 0.5433 and 0.214 and -0.3034 | -0.3852 and -0.1155 and -0.6114 and 0.727 and 1.037 and 0.08532 and -0.01271 and 0.3032 and 0.07761 and 0.3175 and 0.4069 and -0.08232 | 0.1204 and 0.2696 and 0.9581 and 0.1492 and 0.118 and 0.6263 and -0.2596 and 0.5246 and 0.1105 and -0.1058 and -0.167 and -0.03998 | -0.05296 and -0.02889 and -0.2552 and 0.1059 and -0.1979 and 0.05628 and 0.6118 and 0.6445 and 0.1105 and 0.0588 and 0.3504 and 0.167 | -0.2306 and 0.4629 and 0.2705 and -0.5029 and -0.1058 and 0.1482 and -0.1952 and 0.1529 | 
3 | COC(=O)C(C)(NC(=O)c1cc(C)n(-c2cccc(C(F)(F)F)c2)n1)c1cccs1 (stereo not drawn) [‘4042] | 5.47 and 20.5031 and -17.7013 and 3.868 and -9.946 and 16.1296 and 11.8289 and 2.756 and -4.61 and 53.764 and 31.1817 and 101.626 | -26.7897 and 2.136 and -8.778 and 14.6567 and 11.5117 and 19.9513 and -8.793 and -8.652 and 7.292 and -12.543 and 23.0893 and -38.5701 | 3.86 and 10.8189 and -7.168 and -0.5372 and 18.0936 and 0.8694 and -3.216 and -14.128 and -10.0259 and 52.6158 and 14.8328 and 50.7749 | 4.227 and 21.1323 and -4.893 and 12.031 and 1.543 and 47.2755 and -8.005 and 4.79 | 0.3035 and 1.168 and 1.593 and 0.5433 and 0.263 and -0.001911 and 0.5967 and -0.2668 and 0.5652 and 0.6952 and 0.5499 and 0.6034 | 0.5783 and 0.1986 and 0.3035 and -0.5508 and -0.4503 and 0.477 and 0.1025 and 0.342 and 0.2553 and 0.5996 and 0.07172 and 0.2821 | 0.4234 and 0.2486 and 0.3685 and 0.04871 and -0.2184 and -0.4987 and -0.05795 and 0.07706 and 0.2515 and 0.11 and 0.2859 and 0.5919 | -0.4259 and 1.1379 and 0.3635 and 0.02873 and -0.2286 and -0.2261 and -0.7534 and -0.5802 and 0.152 and -0.1234 and -0.06216 and 0.328 | 0.1187 and 0.1486 and 0.1386 and 1.752 and -0.4987 and -0.3917 and 0.3777 and 0.05923 and 0.1903 and -0.04686 and 0.1023 and 0.1788 | -0.142 and -0.2668 and 0.06942 and 0.1229 and -0.2611 and 0.6302 and 0.2515 and 0.04112 |  | 
4 | COC(=O)[C@@H]1[C@@H]2CCC[C@@H]2CN1C(=O)c1cc(C)n(-c2cccc(C(F)(F)F)c2)n1 [‘6439] | 8.888 and -10.4292 and 21.5767 and -22.8584 and 10.6877 and 23.7054 and -3.03 and -25.4505 and -11.5273 and -38.9085 and 5.7458 and 45.3696 | -14.5868 and 2.12 and -14.2573 and -12.1496 and -17.9485 and -1.587 and 2.416 and 0.9712 and -11.8708 and -18.969 and 2.392 and 30.6611 | -11.1644 and -28.8723 and -9.377 and -20.3371 and 7.569 and 22.8296 and -25.6829 and 19.6837 and -2.696 and -21.5753 and 28.6015 and 26.5602 | 7.801 and 7.8924 and -6.684 and 10.8674 and 11.8334 | -0.3699 and -0.629 and -0.4075 and -0.1343 and -0.3404 and -0.2341 and 0.1145 and 0.1115 and 0.0731 and 0.05482 and 0.5848 and 0.05117 | -0.2521 and -0.4876 and 0.08245 and 0.4641 and -0.2961 and 0.2119 and 0.07606 and 0.2444 and -0.1791 and -0.2705 and 0.2376 and 0.1498 | 0.1578 and 0.6054 and -0.2426 and -0.08716 and -0.302 and 0.587 and -0.1484 and 0.2031 and -0.1316 and 0.1352 and 0.2266 and 0.2705 | 0.417 and 1.067 and -0.2097 and -0.6384 and -0.2577 and -0.003692 and -0.5501 and -0.2164 and 0.01462 and 0.1133 and -0.2156 and 0.4386 | -0.1249 and -0.1814 and -0.06361 and 0.3416 and -0.4024 and -0.3168 and -0.3315 and 0.3744 and 0.2668 and 0.201 and 0.1535 and 0.04386 | 0.5724 and 0.2002 and 0.6149 and 0.662 and -0.2754 and 0.2474 and 0.2385 and -0.11 and 0.19 and -0.06944 and 0.1681 and -0.117 | -0.06277 and -0.3788 and 0.2119 and 0.2296 and 0.3545 and 0.1498 and -0.2156 and -0.2887 | 
5 | COC(=O)C(NC(=O)c1cc(C)n(-c2cccc(C(F)(F)F)c2)n1)c1cccs1 (stereo not drawn) [‘60154] | 5.662 and 44.2322 and 0.6715 and -38.8065 and -37.3719 and -32.3397 and 2.737 and -16.836 and -23.2586 and 11.7794 and -7.004 and 2.645 | 31.5201 and 15.8539 and -7.22 and 3.077 and 5.6872 and -25.4568 and 14.693 and -5.291 and 4.581 and -3.063 and -9.398 and -16.9561 | 36.527 and -18.5936 and 28.2842 and -24.2438 and -27.0413 and -11.4376 and 6.346 and 0.7465 and -10.1746 and 6.091 and -16.8046 and -30.7581 | 4.777 and 6.03 | 0.6163 and 0.5183 and 0.4074 and 1.047 and -0.2357 and 0.1979 and 0.1575 and -0.04009 and 0.3689 and 0.06463 and 0.2642 and -0.2325 | 0.2685 and 0.03626 and 0.3306 and 0.1173 and -0.1752 and 0.8129 and 1.216 and 0.4508 and 0.4115 and 0.05154 and 0.2479 and -0.2453 | 0.4852 and 0.1984 and 0.2837 and 0.1429 and -0.2054 and -0.4121 and -0.2206 and -0.292 and -0.1252 and -0.2855 and 0.2348 and 0.3434 | -0.2155 and -0.1301 and 0.1173 and 0.6122 and -0.05924 and -0.4575 and 0.3894 and -0.3771 and -0.1415 and 0.6209 and -0.03027 and 0.6932 | -0.2407 and 0.2837 and 0.3434 and 0.1088 and 0.1575 and 0.2735 and -0.008823 and -0.09899 and -0.3935 and 0.04172 and -0.027 and 0.3306 | 0.2937 and -0.224 and 0.3989 and -0.08319 and 0.4298 and 0.2332 and 0.7726 and -0.1284 and 0.8434 and -0.1448 and 0.03845 and 0.1642 | -0.5482 and -0.07466 and -0.02773 and 0.1642 and -0.271 and 0.6314 and 0.1878 and 0.3068 and 0.3591 and -0.1742 and -0.4917 and -0.06186 | 20.6654 and 19.9889 and 23.0059 and 15.8569 and 16.3793 and 14.9787 and 14.9484 and 19.8456

Source: publication PMC11882969 (Nature Communications, 2025)
